Test results: patent EP4792891A2 (LTZ Therapeutics Inc., dated 2026)
No constants are given. Whether binding was seen depends on the method and setting. Some results given as binding are weak or reduced against the parent protein; the word gives no strength. For part of these data: Where a sequence is shown, tags or fusion partners need not be part of it.

B1: 6A5 (rabbit anti-CLEC5A clone) (antibody, V domains shown)
VH: QQQLEESGGGLVKPGGTLTLTCTASGFSFSSSYYMCWVRQAPGKGLELIACIYSSSGRTWYATWVNGRFTISRSTSLNTVDLKMTSLTAADTATYFCARSYAGYGGYGYAYFNLWGPGTLVTVSS
VL: DIVMTQTPASVEAGVGGTVTIKCQASEDIYSSLAWYQQKAGQRPKLLIYDASTLASGVPSRFKGSGSGTEYTLTISGVQPDDAATYYCQNYYDSTGSGYGAAFGGGTEVVVK
B2: chimeric anti-CLEC5A antibody 6A5 (antibody, human IgG1, V domains shown)
VH: B1 VH
VL: B1 VL
B3: chimeric anti-CLEC5A antibody 6G9 (antibody, human IgG1, V domains shown)
VH: QSLEESGGDLVKPGASLTLTCTASGFSFTSNKYMCWVRQAPGKGPEWIACIYVGDGNTYYASWAKGRFTISKTSSTTVTLQMTSLTVADTATYFCARGGDYSIGGGGFASNLWGPGTLVTVSS
VL: AFELTQTPSSVEAAVGGTVTINCQASESISNFLAWYRQKPGQPPKLLIYRASTLASGVSSRFKGSGSGTEFTLTISDLEPADGASYYCQSYYGTSSTGHNVFGGGTEVVVK
B4: 6G9 (rabbit anti-CLEC5A clone) (antibody, V domains shown)
VH: B3 VH
VL: B3 VL
B5: chimeric anti-CLEC5A antibody 14A2 (antibody, human IgG1, V domains shown)
VH: QSLEESGGGLVKPEGSLTLTCKASGFTLSSYYYMCWVRQAPGKGLEWIACIYAGSSGTTVYASWAKGRFTISKTSSTTVTLQMTSLTAADTATYLCARKLGDVGYGHTTYFNLWGPGTLVTVSS
VL: ALVMTQTPSSVSAAVGGTVTIKCQASQNIYSTLAWYQQKPGQPPKLLMFDASDLASGVPSRFKGSGSGTEYTLTISDLEPADAATYFCQTYYDSGSDDLNAFGGGTEVVVK
B6: chimeric anti-CLEC5A antibody 7G10 (antibody, human IgG1, V domains shown)
VH: QQQLEESGGGLVKPGGTLTLTCKASGFSFSSGYDMCWVRQAPGKGLEWIACIYGGRSDNVYYARWAKGRFTISKTSSTTVTLQMTSLTAADTATYFCARDYLYRGYIGGGYGRSNLWGPGTLVTVSS
VL: DVVMTQTPASVSAAVGGTVTINCRASEDIENCLAWYQQKPGQPPKLLIYQASKLPSGVPSRFSGSGSGTEYTLTISDLEPDDGATYYCQNPDYMRNTDNLFGGGTEVVVK
B7: chimeric anti-CLEC5A antibody 13E6 (antibody, human IgG1, V domains shown)
VH: QSLEESGGDLVKPGGTLTLTCTASGFSFSSSYWLCWVRQAPGKGLEWIACIYGGSSRGTYYASWAKGRFTISKTSSTTVTLQMTSLTAADTATYFCASHTYTYPRFSPYFNLWGPGTLVSVSS
VL: AFEMTQTPASVSPAVGGTVSINCQASEDIESSLAWYQQKPGQPPKLLIYDASDLESGVPSRFKGSGSGTEYTLTISGVQPADAATYFCQSAYYTGSADNTFGGGTEVVVK
B8: chimeric anti-CLEC5A antibody 9E11 (antibody, human IgG1, V domains shown)
VH: QSLEESGGGLVQPEGSLTLTCTASGFDLNNYYYMCWVRQAPGKGLEWIACTHAGSSSSSYYARWAKGRFTISKTSSTTVTLQMTSLTAADTATYFCARHDRDYDDMDLWGPGTLVTVSS
VL: NIVMTQTTSPVSAVVGGTITINCQASQSIEYGYLSWYQQKPGQPPKLLIFYASKLASGVPSRFSGSGSGTQFTLTISGVQPDDAATYFCLYGYFDDYSGAAFGGGTEVVVK
B9: 14A2 (rabbit anti-CLEC5A clone) (antibody, V domains shown)
VH: B5 VH
VL: B5 VL
B10: 5C7 (rabbit anti-CLEC5A clone) (antibody, V domains shown)
VH: QSLEESGGDLVKPGASLTLTCTASGFSFSRSSYMCWVRQAPGKGLEWIGCLSVGDGHTYYASWAKGRFTISKTSSTSVTLQMTRLTAADTATYFCARAPSYSGDGGHGYDLWGPGTLVTVSS
VL: AIVMTQTPSSKSVPVGDTVTINCQASESVDRNNRLAWFQQKPGQPPKLLIYTTSTLASGVPSRFKGSGSGTHFTLTISDVVPDDAATYYCAGYRGAHTDGDAFGGGTEVVVK
B11: humanized anti-CLEC5A antibody h3A7 (antibody, V domains shown)
VH: EQQLLESGGGLVQPGGSLRLSCAASGFSFSGMYWICWVRQAPGKGLEWIACIYTGSSTTGYASWAKGRFTISKDSSKNTVYLQMNSLRAEDTAVYFCASPYGDSSHYRGLNLWGPGTLVTVSS
VL: DVQMTQSPSSLSASVGDRVTITCQASQRINNYLSWFQQKPGKPPKLLIYGAATLASGVPSRFSGSGSGTDYTLTISSLQPEDVATYYCQCTYGIPSSNYGFGGGTKVEIK
B12: 7G10 (rabbit anti-CLEC5A clone) (antibody, V domains shown)
VH: B6 VH
VL: B6 VL
B13: 3A7 (rabbit anti-CLEC5A clone) (antibody, V domains shown)
VH: QSLEESGGDLVKPGASLTLTCTASGFSFSGMYWICWVRQAPGKGLEWIACIYTGSSTTGYASWAKGRFTISKTSSTTVTLQMTSLTAADTATHFCASPYGDSSHYRGLNLWGPGTLVTVSS
VL: AVVMTQTPASVEAAVGGTVTINCQASQRINNYLSWFQQKPGQPPKLLIYGAATLASGVPSRFKGSGSGTEYTLTISDLEPADAATYYCQCTYGIPSSNYGFGGGTEVVVK
B14: 13E6 (rabbit anti-CLEC5A clone) (antibody, V domains shown)
VH: B7 VH
VL: B7 VL
B15: 9E11 (rabbit anti-CLEC5A clone) (antibody, V domains shown)
VH: B8 VH
VL: B8 VL

Tests used:
[1] = target: T1, Human CLEC5A (C-type lectin domain family 5 member A) on the cell surface (human) (UniProt Q9NY25); experiment: flow cytometry on human peripheral monocytes, LEM supernatants, FITC anti-rabbit IgG
T1 sequence: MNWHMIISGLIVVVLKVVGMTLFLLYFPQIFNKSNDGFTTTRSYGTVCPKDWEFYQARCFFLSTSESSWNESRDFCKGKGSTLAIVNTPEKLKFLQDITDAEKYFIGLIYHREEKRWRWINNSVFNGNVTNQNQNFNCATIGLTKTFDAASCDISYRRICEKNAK

[2] = target: T1, Human CLEC5A (C-type lectin domain family 5 member A) on the cell surface (human); experiment: flow cytometry on human M0 macrophages
[3] = target: T2, Human CLEC5A His Tag protein (ACROBiosystems, Cat#: CLA-H5243) (human) (UniProt Q9NY25); experiment: ELISA, plate coated with human CLEC5A
T2 sequence: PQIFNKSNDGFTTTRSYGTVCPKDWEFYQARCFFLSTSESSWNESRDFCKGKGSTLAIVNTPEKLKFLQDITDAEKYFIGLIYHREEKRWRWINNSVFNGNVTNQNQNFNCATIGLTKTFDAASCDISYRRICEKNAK

Binder | binding [1] | binding [2] | further results
B1 | binds |  | 
B2 |  | binds | 
B3 |  | binds | 
B4 | binds |  | 
B5 |  | binds | 
B6 |  | binds | 
B7 |  | binds | 
B8 |  | binds | 
B9 | binds |  | 
B10 | binds |  | 
B11 |  |  | binding [3]: binds
B12 | binds |  | 
B13 | binds |  | 
B14 | binds |  | 
B15 | binds |  | 
